# Assay results reported in PubChem BioAssay AID1671190 (National Center for Advancing Translational Sciences (NCATS), 2021).
# Chains of the proteins cited; added tags and fusions are not shown. Lines headed by an entry give the natural chain unless they say otherwise; changes in a name come on top.
# UniProt P18054: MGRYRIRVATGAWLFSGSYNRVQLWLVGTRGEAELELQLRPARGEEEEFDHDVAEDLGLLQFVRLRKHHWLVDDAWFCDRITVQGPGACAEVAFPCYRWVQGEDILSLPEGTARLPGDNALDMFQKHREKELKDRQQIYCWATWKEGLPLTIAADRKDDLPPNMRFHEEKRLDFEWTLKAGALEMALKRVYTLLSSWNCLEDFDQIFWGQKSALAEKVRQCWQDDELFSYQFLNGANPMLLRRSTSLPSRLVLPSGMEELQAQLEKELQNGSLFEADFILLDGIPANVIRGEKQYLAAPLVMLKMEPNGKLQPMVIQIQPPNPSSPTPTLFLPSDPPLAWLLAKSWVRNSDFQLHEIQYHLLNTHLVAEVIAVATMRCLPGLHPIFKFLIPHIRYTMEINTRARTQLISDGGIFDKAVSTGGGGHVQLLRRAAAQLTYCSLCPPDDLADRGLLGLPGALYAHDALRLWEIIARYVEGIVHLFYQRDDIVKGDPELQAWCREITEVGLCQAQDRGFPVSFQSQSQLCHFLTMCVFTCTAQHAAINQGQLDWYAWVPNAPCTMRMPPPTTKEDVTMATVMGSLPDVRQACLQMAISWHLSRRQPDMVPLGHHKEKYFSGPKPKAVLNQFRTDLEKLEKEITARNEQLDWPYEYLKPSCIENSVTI
# Among all 580,000 compounds or so, about 6,100 (1.1%) were called active. Inconclusive means that the source gave no clear call. Such entries were picked first, then a sample of the others. The call rests on the fitted dose curve; in most records, active means well fitted inhibition curve with a large enough effect; inconclusive means small, poorly fitted or top-dose-only effect, or another doubt; inactive means no such curve, though single readings can be large or run the other way. A potency beside an inconclusive call is a rough fit, not a confirmed value.
# Molecular target: Polyunsaturated fatty acid lipoxygenase ALOX12 (Homo sapiens) (UniProt P18054)
# Test: Primary qHTS assay for inhibitors of human arachidonate 12S-lipoxygenase (ALOX12): Round 2
# Settings: purified 12hLO, xylenol orange hydroperoxide absorbance; activity change, negative = inhibition: at 108 µM (top of the series) unless noted
# How it was run: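 Purified human 12hLO at 150 nM in 25 mM Hepes, 0.01% Triton X-100, pH 7.0, preincubated 15 min at room temperature with compound. Reaction started with 40 uM arachidonic acid, 30 min at room temperature. Hydroperoxide measured by Fe-xylenol orange, 573/405 nm absorbance ratio.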
# On the % scale 0 is the no-effect control and ±100 the full control effect; potency means the concentration at half of the fitted maximal effect.
SMILES,"activity change, negative = inhibition",Potency
CCc1nnc([C@@H]2CC(F)(F)CN2C(=O)c2noc(C)c2COC)o1,inactive: 32%,–
Cc1ccc(NC(=O)CC(C)C)cc1,inactive: 26.5%,–
Cc1occc1C(=O)N1C[C@H]2OC(=O)N(CCCN3CCOCC3)[C@H]2C1,–,"inconclusive: 100 µM [inhibitor, partial curve, poor fit]"
Cc1cccc(/C=C/C(=O)c2ccc(-c3ccccc3)cc2)c1,–,"inconclusive: 39.8 µM [inhibitor, partial curve, poor fit]"
COc1ccccc1Nc1nc2c(s1)CCC2,inactive: -12.3%,–
CCc1nc(C)ccc1OCC(=O)O,–,"inconclusive: 7.94 µM [inhibitor, partial curve, poor fit]"
COc1ccc(-c2cc(C[C@H]3CNCC[C@H]3CC(=O)N3CCN(c4ccccc4OC)CC3)no2)cc1,–,active: 28.2 µM
COc1cccc(C(=O)N[C@H]2[C@H](O)[C@H](O)C[C@@H]2c2ccc(C(F)(F)F)nc2)c1,inactive: 128% [at 176 µM],–
O=c1n(-c2cccc(Cl)c2)nc2n1CCN([S+](=O)([O-])c1cccs1)C2,–,"inconclusive: 35.5 µM [inhibitor, full curve]"
O=C(O)C1CSC2(CCN(Cc3ccccc3)CC2)N1 (centres undefined),–,"inconclusive: 0.631 µM [inhibitor, full curve, poor fit]"
COc1ccc(CCNCC(O)COc2cccc(Br)c2)cc1 (centres undefined),–,"inconclusive: 39.8 µM [inhibitor, partial curve, poor fit]"
CC1(C(=O)NS(=O)(=O)c2ccc(C#N)cc2)CCN1C(=O)C1(c2ccccc2)CC1 (centres undefined),–,"inconclusive: 112 µM [inhibitor, single point]"
Cc1cccc(CC(=O)N2CCN(c3cc(-c4cccs4)[nH]n3)CC2)c1,inactive: 4.6%,–
Cc1ccc(S(=O)(=O)NCC2CCC(C(=O)NC3CCCCC3)CC2)cc1 (centres undefined),inactive: 0%,–
c1csc(CNc2ccc3c(c2)OCCO3)c1,–,"inconclusive: 100 µM [inhibitor, partial curve, poor fit]"
OC1CCN(Cc2nnc(-c3ccccc3Cl)o2)CC1,inactive: -4.69%,–
O=c1cc(CSc2ccc3c(c2)OCCO3)c2c(ccc3ccccc32)o1,–,"inconclusive: 126 µM [inhibitor, single point]"
CN1C[C@@H](NC(=O)NC2CCCCC2)C[C@H]1c1nc(Cc2ccccc2)no1,–,"inconclusive: 3.55 µM [inhibitor, full curve, poor fit]"
CCC1(C)C(C#N)C(=O)NC(=O)C1C#N (centres undefined),inactive: 4.16%,–
CC(=O)N1CCCc2cc(S(=O)(=O)N(Cc3ccccc3)C(C)C)ccc21,inactive: -4.98%,–
COc1ccccc1C1C2=C(CC(C)(C)CC2=O)Nc2nnnn21 (centres undefined),–,"inconclusive: 22.4 µM [inhibitor, full curve, poor fit]"
CN(C)CC/C=C1/c2ccccc2Sc2ccc(Cl)cc21,–,"inconclusive: 44.7 µM [inhibitor, partial curve, poor fit]"
CCn1c(SCC(=O)Nc2ccc3c(c2)OCO3)nc2c(-c3ccc(C)cc3)csc2c1=O,inactive: 2.31%,–

SMILES,"activity change, negative = inhibition",Potency
O=C(Nc1cccc2ccccc12)N1CC=C(c2ccccc2)CC1,–,"inconclusive: 50.1 µM [inhibitor, partial curve, poor fit]"
O=C(c1ccccc1)C1CCN(C(=O)C2CCC(=O)N(Cc3cccc(F)c3)C2)CC1 (centres undefined),inactive: 0%,–
O=C(NNC(=O)c1ccc(NC(=O)C2CCCCC2)cc1)c1ccc(F)cc1,–,"inconclusive: 79.4 µM [inhibitor, partial curve, poor fit]"
O=C(NCc1cccc(Cl)c1)C(=O)Nc1ccc2cc[nH]c2c1,–,"inconclusive: 89.1 µM [inhibitor, single point]"
Cc1ccc(C(=O)/C(C#N)=C/c2ccc(OCc3ccccc3Cl)cc2)cc1,–,"inconclusive: 35.5 µM [inhibitor, partial curve, poor fit]"
Cc1ccccc1C(C)NC(=O)c1cc2ccccc2oc1=O (centres undefined),–,"inconclusive: 126 µM [inhibitor, single point]"
CC(C)NC(=S)N/N=C/c1ccc(C(C)(C)C)cc1,–,active: 31.6 µM
CCCCNC(=O)c1ccc2c(c1)NC(=O)C(CS(=O)(=O)Cc1ccc(F)cc1Cl)N2 (centres undefined),–,"inconclusive: 50.1 µM [inhibitor, partial curve]"
CC(C)c1ccc2[nH]c3nc(SCC(=O)NC4CC4)nnc3c2c1,–,"inconclusive: 44.7 µM [inhibitor, partial curve, poor fit]"
Cc1cc2nc(-c3ccc(SCc4ccccc4C#N)nc3)[nH]c2cc1C,inactive: 3.79%,–
CCSc1nnc(NC(=O)CSc2c(Cl)cccc2Cl)s1,inactive: -10.6% [at 57.4 µM],–
COc1cccc(NC(=O)CCN2CCN(CCO)CC2)c1,inconclusive: -31.5% [inhibitor],–
O=C1C(NS(=O)(=O)c2ccc(Cl)cc2)=C(N2CCCCC2)C(=O)c2ccccc21,–,"inconclusive: 10 µM [inhibitor, partial curve, poor fit]"
OC[C@@H](O)C(O)[C@@H](O)CO (some centres undefined),inactive: -12.3%,–
COc1ccc(CN2Cc3[nH]nc(-c4ccccc4Oc4ccccc4)c3CC2=O)cc1,inactive: 3.78% [at 176 µM],–
CN(c1ccccc1)c1cc(=O)c2ccnc(-c3cncnc3)c2o1,–,"inconclusive: 25.1 µM [inhibitor, full curve, poor fit]"
CCCCC(O)(CCCC)C(=O)N/N=C(\C)c1ccc(Cl)cc1,inactive: 137%,–
Cc1ccccc1NC1c2ccccc2C(=O)N1Cc1ccco1 (centres undefined),inactive: -15%,–
O=Nc1[nH]c(=O)c(/C=C(\O)c2ccccc2)nc1NO,–,"inconclusive: 44.7 µM [inhibitor, partial curve, poor fit]"
COc1ccccc1CN1CCNc2cc(Nc3ccccc3)ncc2C1,–,"inconclusive: 70.8 µM [inhibitor, partial curve, poor fit]"
COc1ccc(-n2nc(C(=O)NCC(=O)N3CCOCC3)c3ccccc3c2=O)cc1OC,–,"inconclusive: 0.224 µM [inhibitor, full curve, poor fit]"
COc1ccc(CN(C)C(C)C(=O)Nc2ccc(S(=O)(=O)N3CCCCC3)cc2)cc1F (centres undefined),–,"inconclusive: 112 µM [inhibitor, single point]"
Cc1ccc(OCCC(=O)NNC(=O)c2nn(C)c(=O)c3ccccc23)cc1,inactive: 1.46%,–

SMILES,"activity change, negative = inhibition",Potency
O=C(O)C1=CC(/C=C/c2ccccc2)n2ncc(C(=O)Nc3ccccc3Cl)c2N1 (centres undefined),–,"inconclusive: 7.08 µM [inhibitor, partial curve, poor fit]"
CNc1nc(C(=O)N2CCC3(CC2)c2nc[nH]c2CCN3C)cs1,inactive: 21.5%,–
O=C1N(CC(=O)N2CCc3ccccc32)CCN1Cc1ccc(Cl)cc1,–,"inconclusive: 35.5 µM [inhibitor, partial curve, poor fit]"
Cc1noc(C2CCCCN2C(=O)c2ccoc2)n1 (centres undefined),–,"inconclusive: 10 µM [inhibitor, partial curve, poor fit]"
CCOc1cc(-c2sc(Nc3ccc(CC)cc3)n[n+]2-c2ccccc2)ccc1OC,–,"inconclusive: 31.6 µM [inhibitor, partial curve, poor fit]"
Cc1ccc(CNC(=O)c2ccccc2NC(=O)Cn2c(C)cc(C)c(C#N)c2=O)o1,–,"inconclusive: 31.6 µM [inhibitor, single point]"
Nc1cc(C(=O)c2ccccc2)ccc1[N+](=O)[O-],–,"inconclusive: 50.1 µM [inhibitor, partial curve, poor fit]"
O=C(N/N=C/c1ccc(O)cc1O)c1ccc(CN2C(=O)c3cccc4cccc2c34)cc1,inactive: 14.5%,–
O=C(Nc1cc(F)ccc1F)c1ccc2ccccc2n1,–,"inconclusive: 50.1 µM [inhibitor, single point]"
O=C(c1ccccn1)N1CCN(S(=O)(=O)c2cccc(Br)c2)CC1,–,"inconclusive: 100 µM [inhibitor, partial curve, poor fit]"
O=C(NCc1ccccc1F)c1ccc(S(=O)(=O)NCc2ccco2)cc1,–,"inconclusive: 50.1 µM [inhibitor, partial curve, poor fit]"
Nc1ccc2oc(Cc3ccc(Cl)cc3)nc2c1,inactive: 3.28%,–
CCC(C(=O)Nc1c2c(nn1C(C)(C)C)CS(=O)(=O)C2)c1ccccc1 (centres undefined),–,"inconclusive: 20 µM [inhibitor, full curve, poor fit]"
CCc1nnc(NC(=O)c2ccc(-c3ccccc3F)o2)s1,–,"inconclusive: 100 µM [inhibitor, single point]"
CCn1ccnc1CN(C)c1ccc(-c2nc(C3CC3)no2)cn1,–,"inconclusive: 3.16 µM [inhibitor, full curve, poor fit]"
CC[N+](C)(CC)CC(O)COCC1COc2ccccc2O1 (centres undefined),–,"inconclusive: 50.1 µM [inhibitor, partial curve, poor fit]"
O=C(Nc1ccccc1)OCc1cnc(Cl)s1,–,"inconclusive: 126 µM [inhibitor, single point]"
Cc1ccccc1Oc1ccc2c(c1)[C@@H]1C[C@H](N(C)C(=O)c3ccco3)[C@H]([C@H](C)O)C(=O)N1CC2,–,"inconclusive: 79.4 µM [inhibitor, single point]"
Cc1ccnc(N=O)c1,–,"inconclusive: 3.55 µM [inhibitor, full curve, poor fit]"
CC12CN3CC(C)(CN(C1)C3c1ccc([N+](=O)[O-])o1)C2=O (centres undefined),inactive: 3.63%,–
COc1cc(OC)cc(C(=O)NC(C(=O)Nc2ccc3c(c2)OCCO3)C(C)C)c1 (centres undefined),inactive: 7.44%,–
CC(C)CSc1nnc(-c2c[nH]c3ccccc23)n1C1CC1,–,"inconclusive: 50.1 µM [inhibitor, partial curve, poor fit]"
O=C(O)C(Cc1ccccc1)N1C(=O)/C(=C/c2cccs2)SC1=S (centres undefined),–,"inconclusive: 44.7 µM [inhibitor, partial curve]"

# Single entries from the list.
# Value for CCn1ccnc1CN(C)c1ccc(-c2nc(C3CC3)no2)cn1 under Potency: inconclusive: 3.16 µM [inhibitor, full curve, poor fit]
# Value for O=C(c1ccccn1)N1CCN(S(=O)(=O)c2cccc(Br)c2)CC1 under Potency: inconclusive: 100 µM [inhibitor, partial curve, poor fit]
# Value for Nc1cc(C(=O)c2ccccc2)ccc1[N+](=O)[O-] under Potency: inconclusive: 50.1 µM [inhibitor, partial curve, poor fit]
# Value for CC[N+](C)(CC)CC(O)COCC1COc2ccccc2O1 (centres undefined) under Potency: inconclusive: 50.1 µM [inhibitor, partial curve, poor fit]
